Data as given in PubChem BioAssay AID686937 (Drosophila RNAi Screening Center, 2013).
Test: 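Knock-downs that reduce output of a secreted reporter enzyme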 (primary screen). Cells: Drosophila S2 cells expressing secreted horseradish peroxidase. Reagents: long dsRNA against Drosophila genes. Duration: about 5.5 days (5 days dsRNA, then 12 h reporter induction). Treatment: reporter expression induced after 5 days of dsRNA, read 12 h later; inducer not stated. Detection: 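After 5 days of dsRNA and 12 h of reporter induction, medium peroxidase read by chemiluminescence and scored as per-plate z-score; higher values mean more reporter released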. Reading the numbers: z-score: higher = more reporter secreted into medium.
The deposit covers about 23,000 reagents; this is an unselected part of those with a known target gene and a result. 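Reduced-secretion tags in replicate 1 do not always agree with the z-scores; no criterion for assigning the tags was given.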 Names joined by + are all predicted targets of the reagent. Not all columns of the deposit are shown. Reagent sequences are not shown. Not given: the amount of reagent.

The first 6 records, to show the layout:
| target | DRSC id | z-score, replicate 1 | z-score, replicate 2 | z-score, replicate 3 | z-score, replicate 4 |
| --- | --- | --- | --- | --- | --- |
| CG8907 | DRSC16453 | 0.31 | 0.3 | – | – |
| CG5909 | DRSC15914 | 0.38 | 0.35 | – | – |
| ArfGAP1 (ADP-ribosylation factor GTPase activating protein 1) | DRSC11173 | 0.19 | -0.24 | – | – |
| btv (beethoven) | DRSC01615 | 0.01 | 0.09 | – | – |
| btv (beethoven) | DRSC02449 | -0.04 | 0.4 | – | – |
| ine (inebriated) | DRSC00822 | 0.14 | 0.38 | – | – |

Main list, from the start:
| target | DRSC id | z-score, replicate 1 | z-score, replicate 2 | z-score, replicate 3 | z-score, replicate 4 |
| --- | --- | --- | --- | --- | --- |
| CG8907 | DRSC16453 | 0.31 | 0.3 | – | – |
| CG5909 | DRSC15914 | 0.38 | 0.35 | – | – |
| ArfGAP1 (ADP-ribosylation factor GTPase activating protein 1) | DRSC11173 | 0.19 | -0.24 | – | – |
| btv (beethoven) | DRSC01615 | 0.01 | 0.09 | – | – |
| btv (beethoven) | DRSC02449 | -0.04 | 0.4 | – | – |
| ine (inebriated) | DRSC00822 | 0.14 | 0.38 | – | – |
| Or19a (Odorant receptor 19a) | DRSC20684 | 0.57 | 0.24 | – | – |
| l(3)72Dp (lethal (3) 72Dp) | DRSC10477 | 0.18 | 0.06 | – | – |
| sqa (spaghetti-squash activator) | DRSC06693 | 0.07 | 0.04 | – | – |
| sqa (spaghetti-squash activator) | DRSC21635 | -0.19 | -0.26 | – | – |
| ppk27 (pickpocket 27) | DRSC08168 | 0.43 | 0.36 | – | – |
| ppk27 (pickpocket 27) | DRSC22211 | -0.03 | 0.74 | – | – |
| CG42288 | DRSC06381 | 0.44 | 0.25 | – | – |
| Gld2 (GLD2 poly(A) polymerase) | DRSC15863 | -2.22 | -1.39 | – | – |
| Lrch (Leucine-rich-repeats and calponin homology domain protein) | DRSC02996 | 0.03 | 0.15 | – | – |
| GM130 (Golgi matrix protein 130 kD) | DRSC04617 | -0.19 | 0.28 | – | – |
| Fer2 (48 related 2) | DRSC15925 | 0.2 | 0.38 | – | – |
| Obp47a (Odorant-binding protein 47a) | DRSC06255 | -0.03 | 0.41 | – | – |
| KrT95D (Krueppel target at 95D) | DRSC16725 | 0.08 | 0.34 | – | – |
| CG4820 | DRSC15654 | 0.36 | 0.14 | – | – |
| CG14071 | DRSC02374 | -0.15 | 0.24 | – | – |
| CG8260 | DRSC20098 | 0.31 | 0.32 | – | – |
| mRpL55 (mitochondrial ribosomal protein L55) | DRSC14764 | 0.37 | -0.15 | – | – |
| CG31600 | DRSC22541 | -0.17 | -0.23 | – | – |
| Timp (Tissue inhibitor of metalloproteases) | DRSC17082 | 0.28 | 0.22 | – | – |
| CG43101 | DRSC05520 | 0.11 | 0.1 | – | – |
| psq (pipsqueak) | DRSC07668 | -1.87 | -1.37 | – | – |
| zip (zipper) | DRSC04725 | 0.4 | 0.27 | -0.04 | 0.36 |
| zip (zipper) | DRSC22489 | -0.27 | 0.66 | – | – |
| Mnt | DRSC17894 | -0.31 | -0.43 | – | – |
| Mnt | DRSC18480 | 0.37 | 0.28 | – | – |
| Zip99C (Zinc/iron regulated transporter-related protein 99C) | DRSC16320 | 0.69 | 0.62 | – | – |
| Su(fu) (Suppressor of fused) | DRSC16871 | 0.31 | 0.28 | – | – |
| cm + Inx7 | DRSC18753 | 0.27 | 0.43 | – | – |
| CR14033 (pseudo) | DRSC02358 | 0.51 | 0.36 | – | – |
| Dhc93AB (Dynein heavy chain at 93AB) | DRSC16644 | 0.23 | 0.31 | – | – |
| CG30467 | DRSC07097 | 0.26 | -0.05 | – | – |
| PGRP-SB2 (Peptidoglycan recognition protein SB2) | DRSC11092 | 0.37 | 0.3 | – | – |
| lncRNA:CR9162 (long non-coding RNA:CR9162) | DRSC03151 | 0.28 | 0.1 | – | – |
| CG4021 | DRSC04439 | -0.14 | 0.35 | – | – |
| ETHR | DRSC15915 | 0.45 | 0.23 | – | – |
| CG2767 | DRSC15451 | 0.53 | 0.51 | – | – |
| Osi8 (Osiris 8) | DRSC12277 | 0.24 | 0.49 | – | – |
| CBP (sarcoplasmic calcium-binding protein) | DRSC17746 | 0.46 | 0.46 | – | – |
| CG1578 | DRSC19729 | 0.12 | 0.34 | – | – |
| Tengl2 (Testis EndoG-Like 2) | DRSC21968 | -0.41 | 0.33 | – | – |
| Nab2 (Nuclear polyadenosine RNA-binding 2) | DRSC14158 | 0.32 | 0.34 | – | – |
| CG34051 | DRSC01739 | 0.26 | -0.23 | 0.36 | 0.08 |
| GatA (Glutamyl-tRNA amidotransferase, subunit A) | DRSC16956 | 0.33 | 0.23 | – | – |
| Task7 (TWIK-related acid-sensitive K[+] channel 7) | DRSC16477 | 0.38 | -0.11 | – | – |
| CG14384 | DRSC14842 | 0.41 | 0.27 | – | – |
| Tpi (Triose phosphate isomerase) | DRSC16888 | 0.39 | 0.49 | – | – |
| Nrk (Neurospecific receptor kinase) | DRSC07480 | 0.31 | 0.17 | – | – |
| Boh2 (Buddy of Hmr 2) | DRSC02777 | 0.19 | 0.14 | – | – |
| Galphao (G protein alpha subunit o) | DRSC07430 | -7.3 | 0.35 | – | – |
| CG31548 | DRSC22640 | 0.56 | 0.52 | – | – |
| GstE14 (Glutathione S transferase E14) | DRSC06881 | 0.04 | 0.19 | – | – |
| mor (moira) | DRSC15378 | -1.28 | -2.44 | – | – |
| CG7882 | DRSC04899 | 0.43 | 0.41 | – | – |
| CG30192 | DRSC03977 | 0.78 | -3.13 | – | – |
| CG15876 | DRSC08484 | 0.28 | 0.36 | – | – |
| CR41501 (pseudo) | DRSC07785 | -0.08 | 0.23 | – | – |
| CG13794 | DRSC02298 | 0.27 | 0.22 | – | – |
| IntS10 (Integrator 10) | DRSC08173 | 0.82 | 0.4 | – | – |
| Sfmbt (Scm-related gene containing four mbt domains) | DRSC02552 | 0.85 | 0.5 | – | – |
| Mad1 (Mitotic arrest-deficient 1) | DRSC07561 | 0.39 | 0.31 | – | – |
| Psf1 (Partner of Sld Five 1) | DRSC08638 | 0.3 | 0.51 | 0.62 | 0.33 |
| CG32564 | DRSC19933 | -0.59 | -0.19 | – | – |
| CG13742 + CNT1 | DRSC06413 | 0.36 | 0.26 | – | – |
| COX7AL (Cytochrome c oxidase subunit 7A-like) | DRSC15313 | 0.36 | -0.16 | – | – |
| GstE13 (Glutathione S transferase E13) | DRSC06083 | 0.46 | 0.49 | – | – |
| sac (sterile affecting ciliogenesis) | DRSC12237 | 0.24 | 0.39 | – | – |
| CG6495 | DRSC01993 | 0.49 | 0.43 | – | – |
| CG13319 | DRSC06356 | 0.7 | 0.63 | – | – |
| CG10339 | DRSC04065 | 0.13 | 0 | – | – |
| dpr19 (defective proboscis extension response 19) | DRSC02237 | 0.14 | 0.05 | – | – |
| wry (weary) | DRSC00352 | 0.4 | 0.1 | – | – |
| wry (weary) | DRSC00456 | -9.07 | 0.38 | – | – |
| wry (weary) | DRSC22414 | -0.29 | -0.36 | – | – |
| CG4942 | DRSC10462 | 0.31 | 0.24 | – | – |
| CG13895 | DRSC08365 | 0.4 | 0.33 | – | – |
| CG12818 | DRSC14556 | 0.07 | 0.35 | – | – |
